Source: PubChem BioAssay AID1347423 (Functional Genomics Laboratory (NCATS/FGL), 2020)
The whole screen tested about 52,000 sequences, of which about 210 (0.4%) were called active.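 The calls were made as follows: active = gene whose silencing raises cell survival under the drug, median off-target-corrected z-score across its silencing RNAs 2 or more; inactive = the rest.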 This is one part of the list.

Test: Resistance to Poly (ADP-Ribose) Polymerase inhibitor: Gene Identification via Genome-wide siRNA Screen
Conditions: mouse BRCA2 R2336H ES cells, olaparib, CellTiter-Glo viability; active compounds read high
How it was run: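 Genome-wide siRNA screen (3 siRNAs/gene, 20 nM) in mouse ES cells carrying hypomorphic BRCA2 R2336H; olaparib 500 nM added 48 h post-transfection, CellTiter-Glo viability 72 h later. Normalized to plate-median negative control; MAD z-scores, gene median, seed-adjusted.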

Row | Sequence | z-score
1 | GGUUGACCUUUAAGUUAAGTT against Tgfa | inactive: -0.62
2 | GCCACGAAGACUAUAUAAGTT against Blvra | inactive: 0.323
3 | CCUGAACGUGAGUGGAGAATT against Man1c1 | inactive: -1.41
4 | GCAAGAUUUUGACCAAAUGTT against Slc30a9 | inactive: -0.491
5 | CCAGCAAGAUAAUGGUAUCTT against Grin2a | inactive: -0.325
6 | CCACUUUCUAGAAAUCCUATT against 5730578N08Rik | inactive: 1.09
7 | GCCUGCACUUGCUAAGUUGTT against Pla2g5 | inactive: -0.284
8 | GGUGUUUGUUACCAGUAGCTT against 4933428G20Rik | inactive: 0.085
9 | GAGUCCUUGGUACUUUUCCTT against Olfr166 | inactive: 0.144
10 | CCCAGAACAUCACAUGGGUTT against Olfr464 | inactive: -0.657
11 | GGCUGACUUUCUGUCACAGTT against Olfr655 | inactive: -0.809
12 | GAAGGUGAAGUGCAGGAAGTT against Fxyd7 | inactive: -0.353
13 | GCCUUUGAUUUGAUUUCAUTT against Olfr1047 | inactive: -0.68
14 | GGUUUGAAUUCAAGUUCAUTT against Klhl5 | inactive: 0.751
15 | GCAGUGUAAUGUGGCCUACTT against Rorc | inactive: 0.488
16 | GCCAUUACCCAAGAACUUUTT against BC048390 | inactive: 0.73
17 | GGAUAAUAGGAACAAUCUGTT against Sval1 | inactive: 1.44
18 | GGCUGAGCUGCGCAACAAATT against Gas8 | inactive: -0.728
19 | GGAGGAGGACUCAAUCUCATT against Hps5 | inactive: 0.518
20 | GGAUCUGCCUACACCUACATT against BC061928 | inactive: -1.98
21 | CGUUAGUCUGUGAAUGCACTT against 2310044H10Rik | inactive: 0.39
22 | GCUAUGUCAUAGUUCAGCCTT against 2410004A20Rik | inactive: 0.26
23 | CCCUGGAUGAAAAUGACAATT against Cdh24 | inactive: 0.414
24 | CGAGCUAACAAACUUGAACTT against Foxn2 | inactive: -0.646
25 | CCAAUGGUCAGGAGUGUAGTT against Prpsap2 | inactive: -2.93
26 | GCAAAUCCCAGCUCAAUGUTT against BC005471 | inactive: -0.742

Some of the entries above in a different format:
Row,Sequence,z-score
16,GCCAUUACCCAAGAACUUUTT against BC048390,inactive: 0.73
17,GGAUAAUAGGAACAAUCUGTT against Sval1,inactive: 1.44
18,GGCUGAGCUGCGCAACAAATT against Gas8,inactive: -0.728

Rewritten as tab-separated lines: entries from further up
Row	Sequence	z-score
20	GGAUCUGCCUACACCUACATT against BC061928	inactive: -1.98
26	GCAAAUCCCAGCUCAAUGUTT against BC005471	inactive: -0.742

Additional entries follow:

Row | Sequence | z-score
27 | GCAAAAAGGCAGUAUUCUATT against 2410012H02Rik | inactive: 1.67
28 | GGACAGAAAGGUACCCUUATT against Slc30a5 | inactive: 0.0285
29 | CCAUAAGCUACCAUUUCGATT against Mcsp | inactive: 0.148
30 | GGGACUCACAAUUGUAGAATT against Efemp1 | inactive: 0.321
31 | CCGGUAUUUAGGAACUGCCTT against Irak2 | inactive: 0.74
32 | GCCUCUGGCAGAGAAAAGATT against 4930579K19Rik | inactive: 0.164
33 | GGACAUCUAACAAAGCUCUTT against A130070M06 | inactive: -1.63
34 | CCAGCUUUUCCGAAUCAAUTT against Galnt7 | inactive: 0.473
35 | CCAAUAUUUGGGAUACUGGTT against Sacm1l | inactive: 0.486
36 | CCGUGGAACUUAAAUAGUUTT against Pard6g | inactive: 0.448
37 | GGAGCAGCAUCCACACUUATT against E230015B07Rik | inactive: -1.74
38 | GGAGAGAAAUUUGACACUCTT against Mgrn1 | inactive: 1.23
39 | GCGAUGGCUAUUUUGAUUGTT against Nfkbib | inactive: 0.614
40 | GGCUGCCUGUGCUAAAAUGTT against 1810017N16Rik | inactive: -1.14
41 | GGAUCUGACAUGUUGUAUATT against Fshr | inactive: 0.124
42 | GGCUACAGCCGUCAAAGAUTT against R74862 | inactive: 0.545
43 | GGUAGAUUAGCUGAUCCCATT against 2310057J18Rik | inactive: -1.51
44 | GGCAGUUUGUUAAUGAAUGTT against Pcsk1 | inactive: 0.648
45 | GCUACAUUCAGGAACCACATT against 2810449C13Rik | inactive: -1.38
46 | GGAUUUGGUGAACAUCCGUTT against 0610039J04Rik | inactive: -0.0216
47 | GCCAAUGAGAGUAGGAAAGTT against Elovl3 | inactive: 0.627
48 | GGAAGCUAAGAAGAUGGAGTT against Ripk4 | inactive: -0.347
49 | CCUAAAGCUUGGCAACCCATT against Vapb | inactive: 1.08
50 | GGUGCUGAAGAUGCUGACGTT against Zfp503 | inactive: 1.33
51 | GGCUUUUUCCACAUGUGCCTT against Olfr514 | inactive: -0.203
52 | GGAGUGUUACUAGAUGUCCTT against 9830002I17Rik | inactive: -2.51

Row | Sequence | z-score
53 | CGUCAACAGGUUUGCUGUGTT against Gbx1 | inactive: 1.17
54 | GGGAAAAAGGAGAACUUCUTT against 1700026D08Rik | inactive: 0.955
55 | GGAGAAGCAUAAAACAGUUTT against Zfpn1a5 | inactive: -1.09
56 | GCAUUCUAAUCUCUCAUAATT against 2300006N05Rik | inactive: 0.59
57 | CGUGAGAGAUACUUUUUAGTT against Rps6ka5 | inactive: 0.53
58 | CCUACUUCCCGUCAUUCCUTT against 1110039B18Rik | inactive: 0.3
59 | CGUUUGCUGGGUAUCAAUATT against Aldrl6 | inactive: 0.592
60 | CCAACAGGCAUAUGCAUAUTT against Ddx5 | inactive: -1.27
61 | GGCCUCAGCUCACAACAAATT against Sf3b4 | inactive: -3.13
62 | GGAACCACUUAUUUAUUUCTT against Gba2 | inactive: 0.94
63 | GGUAGUGACUGUGCUAUCGTT against Gpr35 | inactive: -2.28
64 | GGUGGUAGUUAAUAAAGCUTT against Catnb | inactive: -1.09
65 | GGUGGAACAGGCAGAAUUCTT against Syn2 | inactive: 1.49
66 | GGUGGCCGUGAAGAAGAUCTT against Mapk4 | inactive: 0.23
67 | GCACUCCUGUCAUUCGUGUTT against Gnaq | inactive: 1.13
68 | GGAAGAAGCUAGAACAGGATT against Add2 | inactive: -0.877
69 | CCCGAUUCCCACUUAAAACTT against Pcdhga3 | inactive: 0.672
70 | GGAGAAAGAAGAGCUAUGATT against Pla2g12b | inactive: -0.386
71 | GGAACGAGACAGAAUGGUCTT against 4921505C17Rik | inactive: -0.41
72 | CGGAGUUGGAUGUUAUUCUTT against Mlf1ip | inactive: -1.07
73 | GACCCUUGUUCUUAGCCUUTT against Defcr-rs2 | inactive: -0.384
74 | GGUAUUAGUCCACUUAGGATT against 2810021B07Rik | inactive: 0.0144
75 | CACGGUACAGUACGAUUGATT against Dscr1l1 | inactive: 0.0751
76 | GGAAUGUCCACAUUUUGUATT against Tigd5 | inactive: 0.00592
77 | CCACUGACAUUUUUCAAACTT against Tagln3 | inactive: 1.01
78 | CGGGUAAUAUUCUUUUCAATT against Rex2 | inactive: -0.00137

From no. 73 to 75, copied from above:
Row | Sequence | z-score
73 | GACCCUUGUUCUUAGCCUUTT against Defcr-rs2 | inactive: -0.384
74 | GGUAUUAGUCCACUUAGGATT against 2810021B07Rik | inactive: 0.0144
75 | CACGGUACAGUACGAUUGATT against Dscr1l1 | inactive: 0.0751

(next part)

Row | Sequence | z-score
79 | GGAAGUUUACAGCUUUGAATT against 4933417K05Rik | inactive: 1.21
80 | GGAGCGUACCAUGAUCGAUTT against Parvb | inactive: -0.584
81 | CGAAGACACGCUACGAAGATT against Minpp1 | inactive: 0.934
82 | GGUGUUCCAGUUCUCAAAGTT against 2210409B01Rik | inactive: 0.665
83 | CCCUCACUAUAACACUAUUTT against Six5 | inactive: -0.0485
84 | GCUGAUAUGCACAAGAUGGTT against Gps1 | inactive: -2.63
85 | GCCUUAAGUGUUCAUGUAATT against Vhlh | inactive: 2.01
86 | GGCCCUUAAGAGAACUCUUTT against Olfr1046 | inactive: 1.31
87 | CCCGAAUGCUGCUGUAUACTT against D430018P08 | inactive: -1.3
88 | ACCGUUUUUAAACCUCUGATT against Ociad2 | inactive: -0.58
89 | GGGAUAGCUCUAGUAUAUUTT against Slc24a2 | inactive: -0.462
90 | GGAAAGGUUGUUAUUGAUGTT against Psmd14 | inactive: 0.982
91 | GCACAUGGGAGACUAUGAATT against Efcbp2 | inactive: 0.443
92 | GGACUUUAAGUGAGAAUCUTT against B630019A10Rik | inactive: -0.812
93 | GGACUCUUUCAUAAGCAUATT against Etv5 | inactive: 4.3
94 | CGCGUAACUCCUAUGUAGUTT against G6pd2 | inactive: 0.725
95 | GGGUGACGAUAUCGAAAUGTT against 2900093B09Rik | inactive: -0.499
96 | GGUCCAAGAGGAAAGACAATT against Adarb2 | inactive: 0.481
97 | GCACGUCAGAAUCUCCAGATT against Pln | inactive: -0.75
98 | GGCCAAAUAGCACUAAAGUTT against Ttll4 | inactive: 0.474
99 | CCUGAUAGGCCUAAACCUUTT against 5033425B17Rik | inactive: 0.762
100 | CCUCCUUAUCCAUAAUAUUTT against Slc35a3 | inactive: 0.771
101 | GGACUCCUAUGUAGGUGAUTT against Actc1 | inactive: -0.873
102 | GGAUAGAUCCUUGAAAAAGTT against Tmprss7 | inactive: -0.15
103 | GGUUACCUGGGCAUGGGAATT against 4732465J04Rik | inactive: -2.24
